Like-named read-outs stand apart in the source and are kept apart here. No constants are given. Whether binding was seen depends on the method and setting. Binding seen in cells or lysates may run through a third protein. Here binding means that the protein was enriched with, or labelled near, the bait; the list need not be complete.

Sequences of proteins named here, by UniProt entry; tags and fusion partners are left off. A change or cut given only in a name is not applied to a line headed by its entry.
UniProt Q6EVK6: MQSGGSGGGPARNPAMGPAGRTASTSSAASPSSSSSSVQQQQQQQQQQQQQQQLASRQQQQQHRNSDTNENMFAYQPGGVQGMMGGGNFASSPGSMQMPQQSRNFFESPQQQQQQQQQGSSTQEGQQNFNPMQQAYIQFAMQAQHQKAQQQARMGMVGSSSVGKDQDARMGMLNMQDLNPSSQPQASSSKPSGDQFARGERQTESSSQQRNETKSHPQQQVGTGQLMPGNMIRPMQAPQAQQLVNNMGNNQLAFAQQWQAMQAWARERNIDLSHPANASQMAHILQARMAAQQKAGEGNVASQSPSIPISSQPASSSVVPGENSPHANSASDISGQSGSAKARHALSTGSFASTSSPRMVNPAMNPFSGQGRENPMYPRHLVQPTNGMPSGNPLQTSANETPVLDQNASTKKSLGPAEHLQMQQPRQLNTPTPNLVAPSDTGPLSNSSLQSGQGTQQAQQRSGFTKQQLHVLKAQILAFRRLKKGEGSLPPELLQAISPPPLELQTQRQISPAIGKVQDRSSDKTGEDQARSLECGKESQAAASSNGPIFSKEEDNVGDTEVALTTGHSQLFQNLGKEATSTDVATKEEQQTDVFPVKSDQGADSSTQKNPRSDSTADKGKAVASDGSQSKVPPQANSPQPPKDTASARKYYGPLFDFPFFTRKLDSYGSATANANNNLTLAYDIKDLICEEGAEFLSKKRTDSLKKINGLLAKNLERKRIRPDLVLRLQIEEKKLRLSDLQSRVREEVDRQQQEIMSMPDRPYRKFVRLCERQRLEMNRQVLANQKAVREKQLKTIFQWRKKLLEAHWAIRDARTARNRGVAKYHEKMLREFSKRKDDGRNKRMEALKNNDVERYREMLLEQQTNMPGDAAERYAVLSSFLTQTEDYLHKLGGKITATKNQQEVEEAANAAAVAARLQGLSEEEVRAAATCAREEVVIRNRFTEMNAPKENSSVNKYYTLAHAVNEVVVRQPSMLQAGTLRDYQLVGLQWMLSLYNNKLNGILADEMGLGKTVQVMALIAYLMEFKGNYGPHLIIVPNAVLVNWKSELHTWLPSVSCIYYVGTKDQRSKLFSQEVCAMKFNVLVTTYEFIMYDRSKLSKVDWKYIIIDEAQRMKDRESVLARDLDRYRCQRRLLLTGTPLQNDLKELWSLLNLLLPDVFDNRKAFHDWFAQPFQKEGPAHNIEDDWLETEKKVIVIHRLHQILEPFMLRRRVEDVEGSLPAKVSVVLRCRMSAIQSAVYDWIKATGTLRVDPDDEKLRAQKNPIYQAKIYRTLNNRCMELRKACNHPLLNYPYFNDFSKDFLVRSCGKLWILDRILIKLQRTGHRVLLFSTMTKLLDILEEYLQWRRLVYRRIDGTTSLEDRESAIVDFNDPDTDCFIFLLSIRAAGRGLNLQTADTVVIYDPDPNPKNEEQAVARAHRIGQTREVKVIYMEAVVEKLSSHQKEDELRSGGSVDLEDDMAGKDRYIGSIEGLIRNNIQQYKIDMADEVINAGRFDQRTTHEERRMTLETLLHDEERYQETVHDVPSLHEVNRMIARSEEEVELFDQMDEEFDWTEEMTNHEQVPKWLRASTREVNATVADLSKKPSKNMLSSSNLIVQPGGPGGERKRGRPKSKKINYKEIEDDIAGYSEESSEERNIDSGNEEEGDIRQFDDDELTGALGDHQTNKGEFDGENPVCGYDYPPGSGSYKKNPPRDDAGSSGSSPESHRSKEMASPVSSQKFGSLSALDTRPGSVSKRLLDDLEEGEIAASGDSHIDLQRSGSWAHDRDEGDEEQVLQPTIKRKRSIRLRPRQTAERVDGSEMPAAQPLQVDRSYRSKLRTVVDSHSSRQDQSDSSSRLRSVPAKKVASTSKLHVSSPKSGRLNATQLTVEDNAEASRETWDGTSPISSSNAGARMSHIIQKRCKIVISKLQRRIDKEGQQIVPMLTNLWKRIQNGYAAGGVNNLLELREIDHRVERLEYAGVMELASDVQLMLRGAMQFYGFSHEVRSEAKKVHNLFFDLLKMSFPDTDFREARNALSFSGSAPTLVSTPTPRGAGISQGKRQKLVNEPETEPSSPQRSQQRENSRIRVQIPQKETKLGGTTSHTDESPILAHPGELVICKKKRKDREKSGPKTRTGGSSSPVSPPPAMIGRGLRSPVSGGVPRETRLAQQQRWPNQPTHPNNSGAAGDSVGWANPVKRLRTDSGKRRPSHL
UniProt Q9FLP2: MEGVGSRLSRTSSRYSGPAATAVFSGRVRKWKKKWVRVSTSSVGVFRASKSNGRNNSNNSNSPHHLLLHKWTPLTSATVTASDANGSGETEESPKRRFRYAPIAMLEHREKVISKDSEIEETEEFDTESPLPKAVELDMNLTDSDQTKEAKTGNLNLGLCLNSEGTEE
UniProt F4JL58: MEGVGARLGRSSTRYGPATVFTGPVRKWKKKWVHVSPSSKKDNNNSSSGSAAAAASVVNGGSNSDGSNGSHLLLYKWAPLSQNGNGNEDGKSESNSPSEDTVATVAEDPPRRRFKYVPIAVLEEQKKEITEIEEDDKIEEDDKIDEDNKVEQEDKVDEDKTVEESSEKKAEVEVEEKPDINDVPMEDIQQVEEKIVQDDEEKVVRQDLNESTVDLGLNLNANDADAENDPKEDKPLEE
UniProt Q9LM88: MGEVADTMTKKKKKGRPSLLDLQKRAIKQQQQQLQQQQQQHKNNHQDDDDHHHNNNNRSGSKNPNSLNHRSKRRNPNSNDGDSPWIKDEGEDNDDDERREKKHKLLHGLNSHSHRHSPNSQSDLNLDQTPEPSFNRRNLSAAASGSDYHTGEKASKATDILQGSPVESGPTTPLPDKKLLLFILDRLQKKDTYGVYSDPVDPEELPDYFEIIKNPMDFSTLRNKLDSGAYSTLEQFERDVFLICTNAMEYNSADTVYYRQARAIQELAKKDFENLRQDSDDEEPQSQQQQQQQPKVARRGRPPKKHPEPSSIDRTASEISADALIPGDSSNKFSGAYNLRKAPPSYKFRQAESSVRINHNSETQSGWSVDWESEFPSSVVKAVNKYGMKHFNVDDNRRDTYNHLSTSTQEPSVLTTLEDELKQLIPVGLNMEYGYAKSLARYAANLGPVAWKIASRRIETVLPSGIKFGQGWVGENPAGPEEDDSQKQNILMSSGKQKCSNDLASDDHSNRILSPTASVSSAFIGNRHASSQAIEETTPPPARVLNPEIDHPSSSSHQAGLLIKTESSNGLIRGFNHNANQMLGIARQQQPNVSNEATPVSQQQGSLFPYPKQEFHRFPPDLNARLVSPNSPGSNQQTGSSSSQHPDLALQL
UniProt Q9LF51: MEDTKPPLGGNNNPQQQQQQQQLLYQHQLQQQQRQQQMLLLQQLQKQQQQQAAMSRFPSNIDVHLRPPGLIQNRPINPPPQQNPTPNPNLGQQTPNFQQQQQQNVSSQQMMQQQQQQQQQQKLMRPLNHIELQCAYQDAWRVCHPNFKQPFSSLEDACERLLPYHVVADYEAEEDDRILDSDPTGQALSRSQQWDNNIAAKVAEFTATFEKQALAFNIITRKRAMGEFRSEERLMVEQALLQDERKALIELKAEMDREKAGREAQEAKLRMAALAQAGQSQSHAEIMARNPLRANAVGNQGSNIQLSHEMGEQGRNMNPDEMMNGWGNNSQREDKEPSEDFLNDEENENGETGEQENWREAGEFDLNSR

In assay [1] the target is BRM-GFP (Arabidopsis thaliana) (UniProt Q6EVK6). Briefly: affinity purification with mass spectrometry; immunoprecipitation of BRM-GFP from Arabidopsis seedlings in the WT (brm-1) and bcl7a bcl7b backgrounds; two biological replicates.
The target in assay [2] is BCL7B-GFP (Arabidopsis thaliana) (UniProt Q9FLP2). Briefly: affinity purification with mass spectrometry; anti-GFP beads on extracts of 14-day-old Arabidopsis seedlings with BCL7A-GFP (bcl7a) or BCL7B-GFP (bcl7b); SWI3A and SWI3D also told for the brm-1 background; two biological replicates.
The target of assay [3] is BCL7A-GFP (Arabidopsis thaliana) (UniProt F4JL58). The assay is described as above.
Assay [4] concerns the target BCL7B-GFP (Arabidopsis thaliana) (UniProt Q9FLP2). The assay is described as above. This is another data set of the same source.
Assay [5] deals with BCL7A-GFP (Arabidopsis thaliana) (UniProt F4JL58). Described as above. This is another data set of the same source.

BRD1 (from UniProt Q9LM88): the binding entry in assay [1] was “binds”. For “SPLAYED (SYD) (from UniProt F4IHS2 1-3574)”, the binding result in assay [2] and in assay [3] was “binds” in each case. For the molecule BRIP2 (from UniProt Q9LF51), in assay [1], the binding result is reported as “binds”. With “BRAHMA (BRM) (from UniProt Q6EVK6 1-2193)”, the binding entry in assay [2] and in assay [3] was “binds” throughout.

B1: SWI3D (protein, UniProt Q8VY05 1-985)
chain: MEEKRRDSAGTLAFAGSSGDSPASEPMPAPRRRGGGLKRKANALGGSNFFSSAPSKRMLTREKAMLASFSPVHNGPLTRARQAPSIMPSAADGVKSEVLNVAVGADGEKPKEEEERNKAIREWEALEAKIEADFEAIRSRDSNVHVVPNHCGWFSWEKIHPLEERSLPSFFNGKLEGRTSEVYREIRNWIMGKFHSNPNIQIELKDLTELEVGDSEAKQEVMEFLDYWGLINFHPFPPTDTGSTASDHDDLGDKESLLNSLYRFQVDEACPPLVHKPRFTAQATPSGLFPDPMAADELLKQEGPAVEYHCNSCSADCSRKRYHCPKQADFDLCTECFNSGKFSSDMSSSDFILMEPAEAPGVGSGKWTDQETLLLLEALEIFKENWNEIAEHVATKTKAQCMLHFLQMPIEDAFLDQIDYKDPISKDTTDLAVSKDDNSVLKDAPEEAENKKRVDEDETMKEVPEPEDGNEEKVSQESSKPGDASEETNEMEAEQKTPKLETAIEERCKDEADENIALKALTEAFEDVGHSSTPEASFSFADLGNPVMGLAAFLVRLAGSDVATASARASIKSLHSNSGMLLATRHCYILEDPPDNKKDPTKSKSCSADAEGNDDNSHKDDQPEEKSKKAEEVSLNSDDREMPDTDTGKETQDSVSEEKQPGSRTENSTTKLDAVQEKRSSKPVTTDNSEKPVDIICPSQDKCSGKELQEPLKDGNKLSSENKDASQSTVSQSAADASQPEASRDVEMKDTLQSEKDPEDVVKTVGEKVQLAKEEGANDVLSTPDKSVSQQPIGSASAPENGTAGGNPNIEGKKEKDICEGTKDKYNIEKLKRAAISAISAAAVKAKNLAKQEEDQIRQLSGSLIEKQLHKLEAKLSIFNEAESLTMRVREQLERSRQRLYHERAQIIAARLGVPPSMSSKASLPTNRIAANFANVAQRPPMGMAFPRPPMPRPPGFPVPGSFVAATTMTGSSDPSPGSDNVSSV
For the molecule B1, the binding entry in assay [4] and in assay [5] was “binds” each time.

B2: MINU2 (protein, UniProt F4K128 1-1064)
chain: MVKQLQEQEENDPVEKTKSLISALNYLSRDLLLPSHLYASVSSIYHASVSDLSPSPPLRGNSYTPNRGDLMSEFEDALLQQRLNYESGSRLAELKETRYKNRIHNRLSQLEGLPSNRGEDLQEKCLLELYGLKLQELQCRVRGEVSAEYWLRLNCADPERQLYDWGMMRLPRRMYGVGDSFVMEADDQFRNKRDAERLLRLEEEEKNLIETTQRKFFAEVLNAVREFQLQIQASHRRCKQRNDGVQAWHGKQRQRATRAEKLRIMALKSDDQEEYMKLAKESKNEKLTLFLEETNKIFVSLGAAVQRQKDAKLSENTKLLKGSESDLSDVDAPEDVLPAQDIEIIDSDNNDDSNDLLEGERQFNLAIHSIQEKVTKQPSLLQGGELRSYQLEGLQWMVSLYNNDYNGILADEMGLGKTIQTIALIAYLLESKDLHGPHLILAPKAVLPNWENEFALWAPSISAFLYDGSKEKRTEIRARIAGGKFNVLITHYDLIMRDKAFLKKIDWNYMIVDEGHRLKNHECALAKTLGTGYRIKRRLLLTGTPIQNSLQELWSLLNFLLPHIFNSIHNFEEWFNTPFAECGSASLTDEEELLIINRLHHVIRPFLLRRKKSEVEKFLPGKTQVILKCDMSAWQKLYYKQVTDVGRVGLHSGNGKSKSLQNLTMQLRKCCNHPYLFVGADYNMCKKPEIVRASGKFELLDRLLPKLKKAGHRILLFSQMTRLIDLLEIYLSLNDYMYLRLDGSTKTDQRGILLKQFNEPDSPYFMFLLSTRAGGLGLNLQTADTIIIFDSDWNPQMDQQAEDRAHRIGQKKEVRVFVLVSIGSIEEVILERAKQKMGIDAKVIQAGLFNTTSTAQDRREMLEEIMSKGTSSLGEDVPSEREINRLAARTEEEFWMFEQMDEERRKKENYKTRLMEEKEVPEWAYTSETQEDKTNAKNHFGSLTGKRKRKEAVYSDSLSDLQWMKAMESEDEDASKVSQKRKRTDTKTRMSNGSKAEAVLSESDEEKEEEEEERKEESGKESEEENEKPLHSWKTNKKKRSRYPVMTSSPNSRGKGSSKGSKRN
Consider B2, for which the binding result in assay [4] and in assay [5] was “binds” throughout.

B3: SWI3C (protein, UniProt Q9XI07 1-807)
chain: MPASEDRRGKWKRKKRGGLSAARKPKQEEEDMEEEDEENNNNNNEEMDDVENADELQQNGGATPDPGLGIGEVVEDSGSRISDFPAVVKRVVIRPHASVMAVVAAERAGLIGETRGQGSLPALENISFGQLQALSTVPADSLDLERSDGSSSAYVISPPPIMDGEGVVKRFGDLVHVLPMHSDWFAPNTVDRLERQVVPQFFSGKSPNHTPESYMEFRNAIVSKYVENPEKTLTISDCQGLVDGVDIEDFARVFRFLDHWGIINYCATAQSHPGPLRDVSDVREDTNGEVNVPSAALTSIDSLIKFDKPNCRHKGGEVYSSLPSLDGDSPDLDIRIREHLCDSHCNHCSRPLPTVYFQSQKKGDILLCCDCFHHGRFVVGHSCLDFVRVDPMKFYGDQDGDNWTDQETLLLLEAVELYNENWVQIADHVGSKSKAQCILHFLRLPVEDGLLDNVEVSGVTNTENPTNGYDHKGTDSNGDLPGYSEQGSDTEIKLPFVKSPNPVMALVAFLASAVGPRVAASCAHESLSVLSEDDRMKSEGMQGKEASLLDGENQQQDGAHKTSSQNGAEAQTPLPQDKVMAAFRAGLSAAATKAKLFADHEEREIQRLSANIVNHQLKRMELKLKQFAEIETLLMKECEQVEKTRQRFSAERARMLSARFGSPGGISPQTNNLQGMSLSTGGNNINSLMHQQHQQQQASATSQPSIIPGFSNNPQVQAQMHFMARQQQQQQQQQQQQQQAFSFGPRLPLNAIQTNAGSTASPNVMFGNNQLNNPAAAGAASINQPSFSHPMVRSSTGSGSGSGLGLN
With B3, the binding entry in assay [1] is given as “binds”.

B4: ARP4 (protein, UniProt Q84M92 1-441)
chain: MYGGDEVSAIVVDLGSHTCKAGYAGEDAPKAVFPSVIGAVDGVEAMDVDVDSTKTNSNSEDSKTESEKEKSKRKLYVGSQAMSYRRDHMEVLSPIKDGIVSDWDLVDNIWEHAFKSCLMIDPTEHPMLLAEPPLNTQQQREKAAELMFEKYKVPALFMAKNPVLTSFATGRATSLVVDCGGGSTTISPVHDGYVLQKAVVSSPLGGEFLTDCLLKSLESKGIKIRPRYSFKRKEVRAGEFQVEDVDIPDTTESYKLFCQRMIVGDIKDSICRVPDTPYDDKSYSNIPTTSYELPDGQTLEIGADRFKVPDVMFNPSIVQTIPGMEKYAEMIPSVRGLPHMVMESINKCDVDIRRELYSSILLAGGTSSMQQLKERLEKDLIEESPHSARVKVLASGNTTERRFSVWIGGSILASLGSFQQMWFSKSEYEEHGASYIQRKCP
Consider B4, for which, in assay [1], the binding entry is “binds”.

B5: ARP7 (protein, UniProt Q8L4Y5 1-363)
chain: MEALVVDAGSKFLKAGAAIPDQSPAMIIPSQMKRMVDDGSSSADNPTTVFEDVTLDPIERGLIRDWDAMEDLLRYVVYTGLGWEEGNEGNILFTDPLCTPKAIREQLVQLMFETFNVSGFYASEQAVLSLYAVGRISGCTVDIGHGKIDIAPVLEGAVQHIASKRFELGGTELTKLFAQELGKTNPSMNLSMSDVEKLKEQYANCAEDEIAYKKTQNCEIEQHTLPDGQVISIGRERYSVGEALFQPSILGLEEHGIVEQLVRIISTVSSENHRQLLENTVLCGGTTSMTGFESRFQKEANLCSSAIRPTLVKPPEYMPENLGMYSAWVGGAILAKVVFPQNQHVTKADYDETGPSVVHRKCF
With B5, the binding entry in assay [1] is given as “binds”.
